Test results taken from the supplement of paper PMC3334620.
Over roughly 33,000 sequences, “E-score (-0.5 to 0.5)” has its median near -0.0059; the highest 2% begin near 0.26. The list shows a part of the results.

target: T1, Cin5 (UniProt P40917); experiment: PBM E-score (8-mer binding enrichment) (E-score (-0.5 to 0.5)); higher = stronger / more preferred TF binding; conditions: protein concentration: 100 nM; construct: GST-full length
T1 sequence: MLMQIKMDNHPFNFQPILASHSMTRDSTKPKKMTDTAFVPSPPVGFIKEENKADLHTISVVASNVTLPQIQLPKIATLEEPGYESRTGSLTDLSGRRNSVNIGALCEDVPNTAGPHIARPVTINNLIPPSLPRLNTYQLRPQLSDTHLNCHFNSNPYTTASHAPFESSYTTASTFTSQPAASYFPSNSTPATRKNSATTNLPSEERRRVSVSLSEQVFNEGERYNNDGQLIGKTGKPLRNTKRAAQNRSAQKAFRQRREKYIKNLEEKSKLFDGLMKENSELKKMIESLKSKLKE
Method in brief: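 PURExpress in vitro transcription/translation supplied GST-tagged yeast transcription factors, either full-length or DNA-binding domain. Applied at about 100-200 nM to universal all-10-mer Agilent arrays double-stranded by primer extension, the bound protein was detected with fluorescent anti-GST. E-scores, modified Wilcoxon-Mann-Whitney statistics, were given by the Universal PBM Analysis Suite to ungapped eight-base words pooled with their reverse complements after masliner normalisation.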

Sequence	PBM E-score
TCATCGGA	-0.0215
AGGAAGAC	-0.237
ACACGATG	0.14
GGTATAAC	-0.016
ATCGGCGC	0.0592
ACGCCTCA	-0.17
GCATTAAC	0.0234
AAATAAGG	0.142
AGCTCCAC	-0.121
TAGCGACA	-0.0537
CACCAGAG	-0.111
GTTACTTA	0.225
AGTTTTAG	0.038
GCGCCCGA	-0.103
AAGACGCA	-0.0693
CTCGCAGC	-0.151
CGACATAA	0.173
AGCTATAC	-0.037
ACCGATGG	-0.0425
GAAGTTGC	-0.192
ACGTGTTG	0.0357
CGTCCCAG	-0.0535

Two records drawn at random from those above:
Sequence	PBM E-score
GGTATAAC	-0.016
AGTTTTAG	0.038

The listing continues:

Sequence	PBM E-score
GTAGGCCA	-0.026
AGATGCTC	0.0393
CAGTGGCG	-0.0501
ATGGCTCA	-0.0692
AATGTCCT	-0.12
ACCTGCGG	-0.137
CACGATCA	0.164
CGCATGCC	0.11
AGGTACTC	0.027
AGCTGAAA	0.13
AGGACTCA	-0.111
AACCTGAC	0.131
AGACCTCA	-0.122
CCCAACGA	0.0456
ACCTTAGT	-0.117
GACGACTC	-0.23
TAAGCAGA	0.306
CCAACGCA	0.0408
ACTCGTGC	-0.0445
GAAGTTTA	-0.0162
AGTCGGCG	0.00557
GAGGGATC	-0.245

Sequence	PBM E-score
GGTCAAAA	0.0143
CCCAGGGC	-0.403
CATGGCTC	-0.108
CATGTGAA	-0.0272
CCAATGTC	-0.118
ACCGGACC	-0.00102
AACAGGAT	-0.0242
AAAAGGAA	0.0198
GGGCCAAC	-0.127
CTTTGGCA	-0.224
GACTCTGC	-0.0254
GGAATGTA	0.133
CTACCTAA	0.183
AGCTGGAC	-0.161
AAAACTAC	0.175
ACCGACCT	-0.109
CCCTAGTA	-0.0829
CTCCACGC	-0.155
CATGGTGA	-0.0935
GCGTCCCC	-0.154
CGCTCGAG	0.0897
AGGGTGGC	-0.0544

Sequence	PBM E-score
CTACTCCA	-0.00733
GACTGAGA	-0.11
ACTCGCCT	-0.0239
GCTACTTA	-0.022
ACTAACGG	-0.077
ATGGCGTA	0.0316
GATAACAA	0.1
GAAGACTA	-0.0343
GATGGCCC	-0.136
ACTCTACA	-0.0734
AGCACGCT	-0.109
CACTCCGA	-0.129
TCCATGCA	0.0909
AAAGGTCG	-0.085
CTTACGTC	0.196
TCATTAAA	0.353
CTTAGTAA	0.392
GTTATGGA	0.127
TCTTAAAA	0.0576
ACTGTAGG	0.0639
ACGAAGGA	0.00843
GGACGCGA	-0.00533

As a working copy, some entries already given:
Sequence	PBM E-score
CTCCACGC	-0.155
CATGGTGA	-0.0935
GCGTCCCC	-0.154
CGCTCGAG	0.0897
AGGGTGGC	-0.0544

Going on with the list:

Sequence	PBM E-score
AGCTGTAT	-0.0782
ACCTTACC	0.112
CCGCTAGC	-0.256
TAGCAACA	0.128
CGAGTTTC	0.107
AGTGGTTG	0.0814
ACGGCGTG	0.0473
GAAGGACC	-0.211
GAATAGCC	-0.153
AACAGCGA	-0.158
ATGAACAA	0.165
GAGGCTAC	-0.261
AATAGGCA	0.212
CGAATGTC	0.132
AGTGCTTG	-0.0474
CTCTCCTA	-0.0561
AACATACG	0.171
ATTTGCCG	0.0194
AATGCCCG	-0.122
AAGCACCA	-0.0995
ACCAATAG	-0.123
